Assay results as given in PubChem BioAssay AID1347423 (Functional Genomics Laboratory (NCATS/FGL), 2020).
Screen size: about 52,000 sequences; about 210 (0.4%) were called active.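 Rule for the calls: active = gene whose silencing raises cell survival under the drug, median off-target-corrected z-score across its silencing RNAs 2 or more; inactive = the rest.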 The list shows a part of the results.

assay: Resistance to Poly (ADP-Ribose) Polymerase inhibitor: Gene Identification via Genome-wide siRNA Screen; conditions: mouse BRCA2 R2336H ES cells, olaparib, CellTiter-Glo viability; stronger effect = higher value
In short: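 Genome-wide siRNA screen (3 siRNAs/gene, 20 nM) in mouse ES cells carrying hypomorphic BRCA2 R2336H; olaparib 500 nM added 48 h post-transfection, CellTiter-Glo viability 72 h later. Normalized to plate-median negative control; MAD z-scores, gene median, seed-adjusted.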

Which z-score does the source give for GGAGGAGCUCCAUUUAUGCTT against Zfp71-rs1 here?
The z-score was inactive: 0.14.

Which z-score does the source give for “GGUAGGAGCUCUGAACACUTT against 1300006C06Rik” here?
The z-score was inactive: 0.648.

With GGACGAUUUUCCUCAAUAUTT against Pcdhgc4 as the sequence, how does the z-score read?
Its z-score is inactive: -1.97.

With “CGUUUCUGCAGCAAAAUUUTT against 4921511D23Rik” as the sequence, how does the z-score read?
Its z-score is inactive: 0.274.

With GCAAUGUACUACCAAGAAUTT against Gbe1 as the sequence, how does the z-score read?
The z-score was inactive: -0.791.

With CGAUGACAGACCCUUUCUGTT against Slc2a8 as the sequence, how does the z-score read?
The z-score was inactive: 0.102.

Which z-score does the source give for GGAUUUGGACUCAAAACUATT against Pkig here?
The z-score was inactive: 0.285.

For GGGACAAGUGUUGUUUGACTT against Epb4.1l2, which z-score is on record?
The z-score was inactive: 0.484.

For “GGAGGAUCUUAAGAAGUUCTT against 0710001P09Rik”, which z-score is on record?
The z-score was inactive: 0.639.

Which z-score does the source give for GGGUGACACCUUGUCCAACTT against Abcc6 here?
The z-score was inactive: -1.36.

For “CCAGAAAUCCCUAUAGAUGTT against D030051N19Rik”, which z-score is on record?
The z-score was inactive: 0.474.

Which z-score does the source give for “GGAGGACACUCAGAAGAAATT against 6820443O06Rik” here?
Its z-score is inactive: 0.482.

Which z-score does the source give for GGAUAAACCAGAAACCUUCTT against Sc4mol here?
Its z-score is inactive: -0.232.

With GGCAGCAGAGAAGAAAGCCTT against Pld3 as the sequence, how does the z-score read?
The z-score was inactive: -0.496.

Which z-score does the source give for GGCAAACAGAGAGAAUACGTT against Il22ra1 here?
Its z-score is inactive: 2.49.

For CCACUACAGCAUUGUGACGTT against Enpp4, which z-score is on record?
Its z-score is inactive: -1.71.

Which z-score does the source give for GGCACUUCUUGGACAUCAUTT against Sfxn5 here?
The z-score was inactive: 1.43.

With “GGCAUGAGGGCAAAUGAAATT against 4933434M16Rik” as the sequence, how does the z-score read?
Its z-score is inactive: -2.86.

With AGACUCGUACACGCAGGAATT against Ggn as the sequence, how does the z-score read?
Its z-score is inactive: -1.48.

Which z-score does the source give for CCCUCAGCAGCUCCAACAATT against Olfr739 here?
The z-score was inactive: -0.612.

For GGGCUCUUUUUGGCGAAUATT against Foxk1, which z-score is on record?
Its z-score is inactive: -1.35.

For “GGUGCUCUUAAUUCAUAUATT against 1300013D05Rik”, which z-score is on record?
The z-score was inactive: -0.359.

With GGCCAAAUUUAUAAUGAACTT against BC003885 as the sequence, how does the z-score read?
Its z-score is inactive: 0.344.

Which z-score does the source give for “CGUGGACUCCGUUAUCAUUTT against B830021E24Rik” here?
Its z-score is inactive: 0.088.

Which z-score does the source give for GGUUUCACUAAGACUUAACTT against Ddx27 here?
Its z-score is inactive: 0.363.

For “GGUGAAGCCAAGAAUAGCATT against 3830405G04Rik”, which z-score is on record?
The z-score was inactive: -0.699.

For GGUCUUUCAGUUGGAUAUATT against Celsr2, which z-score is on record?
Its z-score is inactive: -1.97.

With “GGAGUUGGAUAUUCUAAAATT against 6030413G23Rik” as the sequence, how does the z-score read?
The z-score was inactive: 1.18.

Which z-score does the source give for “GGGAUCCGUAAAGAAGAAATT against 4930457P18Rik” here?
Its z-score is inactive: -0.091.

Which z-score does the source give for UCUAUGCAUGGCCCUUUAATT against Olfr726 here?
Its z-score is inactive: -0.732.

For “GGCAGUGAGGUGUAUUGUUTT against 2210413P12Rik”, which z-score is on record?
The z-score was inactive: -2.48.

With GGUUCUCUAUUUUCAGCACTT against Temt as the sequence, how does the z-score read?
The z-score was inactive: 1.03.

Which z-score does the source give for “CCUAUGACACAAGUGAUACTT against A630098A13Rik” here?
The z-score was inactive: -0.553.

For UACUAGCAGAUUAACCACCTT against Hist1h2bc, which z-score is on record?
Its z-score is inactive: 0.583.

With GGUUGUGCUGAAGAGGUUGTT against Rpl18 as the sequence, how does the z-score read?
The z-score was inactive: -2.39.

With GGAGAAGAGUUAUUGGAUATT against Dnajb4 as the sequence, how does the z-score read?
The z-score was inactive: 1.39.

Which z-score does the source give for GGGACCAGAUGAAGAAGGATT against Coq4 here?
Its z-score is inactive: -2.98.

Which z-score does the source give for GGUCAUGGCAUUGAACAGUTT against Tbc1d7 here?
The z-score was inactive: 1.53.

With GGUGAAGCUCACCAACAAUTT against Tbx20 as the sequence, how does the z-score read?
Its z-score is inactive: 0.218.

For GGGAUCUCAUUGCACAUUUTT against BC036718, which z-score is on record?
Its z-score is inactive: -1.55.

With CCUCUGGAGGAGUAAGGUUTT against Trh as the sequence, how does the z-score read?
The z-score was inactive: -0.408.

With GCACAUAUCACGCUACCUGTT against AI646023 as the sequence, how does the z-score read?
The z-score was inactive: 0.00426.

For GGUGACUGACAGCUGCCAATT against Prima1, which z-score is on record?
Its z-score is inactive: -0.633.

For CCUUCCAGUAGACAUGGAATT against Zfp261, which z-score is on record?
Its z-score is inactive: 0.395.

With “GGAAAAGUUAAAGGAAGUCTT against 6330548G22Rik” as the sequence, how does the z-score read?
The z-score was inactive: -0.193.

Which z-score does the source give for GGAAUGGAUAAAAACAUUGTT against Tank here?
The z-score was inactive: 1.26.

For “GGUGCGUCCUGAAAUCAUCTT against 0610040B21Rik”, which z-score is on record?
The z-score was inactive: -1.56.

With GGCAGAAAUCCAUCAGAGATT against Plekhk1 as the sequence, how does the z-score read?
Its z-score is inactive: -0.327.

For GGAUUAUGUCCUGAAGAUGTT against Cyp8b1, which z-score is on record?
Its z-score is inactive: -0.968.

Which z-score does the source give for GAAAAUCUAAGGAUCCUUGTT against V1rd17 here?
Its z-score is inactive: 1.16.

Which z-score does the source give for CGAAAUUGUGAUGAUGAACTT against Mast1 here?
Its z-score is inactive: -0.492.

With UGCUCUUGGGUUCUUAAAUTT against Olfr1466 as the sequence, how does the z-score read?
The z-score was inactive: -1.06.

For GGAUACUGUUCCUUUAUAUTT against Slc15a2, which z-score is on record?
Its z-score is inactive: -1.07.

With “CGAGUUUGGACAUACCUUUTT against D2Ertd391e” as the sequence, how does the z-score read?
The z-score was inactive: -0.145.

With GAGAGAGAAUACCACUGUGTT against LOC432555 as the sequence, how does the z-score read?
Its z-score is inactive: 1.16.

With GGUUUGUCAAUGAUACUAATT against Adam17 as the sequence, how does the z-score read?
The z-score was inactive: 1.13.

With CGAGAUAUAUAGUUGGAUCTT against Cpa5 as the sequence, how does the z-score read?
Its z-score is inactive: -0.0453.

For GGAACCAGUGAUCUUCAAATT against Zim1, which z-score is on record?
Its z-score is inactive: 0.129.

Which z-score does the source give for GCCAUACCUCACGAGAGCUTT against Mcpt8 here?
Its z-score is inactive: -0.251.

For CCAUGAAAAACUUAGUGUGTT against Trim37, which z-score is on record?
The z-score was inactive: 0.497.

With GGAGAUUCAUCGCUACCUUTT against Ccna1 as the sequence, how does the z-score read?
Its z-score is inactive: -0.177.

With GACACCUACUUCAUUGGCCTT against Olfr1245 as the sequence, how does the z-score read?
The z-score was inactive: 0.46.

Which z-score does the source give for GGGAAAAAUCAACUUCACUTT against V1rk1 here?
The z-score was inactive: 0.651.

Which z-score does the source give for GGGUCUCUUACAAAGUCCATT against Msrb here?
Its z-score is inactive: -0.517.

With GGAGCAGGUGCUUUUGGAUTT against Cat as the sequence, how does the z-score read?
The z-score was inactive: 0.0616.

Which z-score does the source give for GGGAUUCAGAACUUAAAGUTT against V1rf4 here?
Its z-score is inactive: 0.81.
